Two compounds from PubChem BioAssay AID588518 (NMMLSC, 2011) can be followed below.

A word on the inhibition: it is the relative decrease from the control value, in per cent.

Structures are written as SMILES. The whole screen tested about 1,700 compounds, of which about 20 (1%) were called active. Cut-off read from the data, not from the text of the source: active = inhibition above about 26%; inactive = the rest. What follows is the remainder of the data, with few or none of the actives.

For this experiment, the system named is Candida albicans multidrug efflux pump MDR1 (expressed in S. cerevisiae AD1-8u). The experiment can be described thus: CaMdr1 pump blockers in yeast – flow cytometry, singleplex, Cherry Pick1 set, confirmation (AID 588518).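 Note: 0% = DMSO vehicle and 100% = reference inhibitor; higher means more Nile Red retained so more efflux inhibition.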 The settings on record: S. cerevisiae AD/CaMDR1, Nile Red efflux, at 10 µM, hits give high values. A general note: In flow cytometry, cells or beads pass a laser one at a time.
Regarding `CCN(CC)c1ccc([N+](=O)[O-])c2cccnc12`, the inhibition is inactive: -0.01%. The value for `O=[N+]([O-])c1cnc2ccc3ccccc3c2c1` was inactive: -0.03%.
